Data: patent US9433683B2, “Reversible pegylated drugs” (Yeda Research and Development Co., Ltd., priority 2003, dated 2016)
At least one compound was matched to its structure with a doubt left. Where a SMILES comes first, the peptide text is derived from it.

Experiment: Hydrolysis of conjugates / release of parent drug upon incubation at pH 8.5, 37° C. (HPLC or TNBS)

**Q.** With `CC[C@H](C)[C@H](NC(=O)[C@H](CCC(=O)O)NC(=O)[C@H](C)NC(=O)OCC1c2cc(NC(=O)CCN3C(=O)C=CC3=O)ccc2-c2ccc(S(=O)(=O)O)cc21)C(=O)N[C@@H](CO)C(=O)NCC(=O)N[C@@H](CCC(N)=O)C(=O)N[C@@H](CC(C)C)C(=O)N[C@@H](CO)C(=O)N[C@@H](Cc1ccc(O)cc1)C(=O)N[C@H](C(=O)N[C@@H](CCCNC(=N)N)C(=O)N[C@@H](CC(=O)O)C(=O)N[C@H](C(=O)N[C@@H](CC(N)=O)C(=O)N[C@@H](CO)C(=O)N[C@@H](Cc1c[nH]c2ccccc12)C(=O)N[C@@H](CCC(N)=O)C(=O)N[C@@H](Cc1c[nH]cn1)C(=O)N[C@H](C(=O)N[C@@H](Cc1c[nH]c2ccccc12)C(=O)N[C@H](C(=O)N[C@@H](CC(N)=O)C(=O)N[C@H](C(=O)N[C@@H](CO)C(=O)N[C@H](C(=O)N[C@@H](CCC(=O)O)C(=O)N[C@@H](CC(N)=O)C(=O)O)[C@@H](C)CC)C(C)C)[C@@H](C)O)[C@@H](C)CC)C(C)C)C(C)C` (some centres unmarked) [Mal-FMS-Peptide 27] (HELM PEPTIDE1{[O=C1C=CC(=O)N1CCC(=O)[*:2]].[O=C(OCC1c2cc(N[*:1])ccc2-c2ccc(S(=O)(=O)O)cc21)[*:2]].A.E.I.S.G.Q.L.S.Y.V.R.D.V.N.S.W.Q.H.I.W.T.N.V.S.I.E.N}$$$$V2.0; N-terminus and C-terminus assumed) as the molecule, how does the “incubation time to full release / complete hydrolysis” value read?
**A.** The value was 32 h.

**Q.** And the “k (h^−1), slope of ln [PEG-FMS conjugate] against time” value?
**A.** The value was 0.082 h^−1.
